Data reported in the supplement of paper PMC4604168 (melanoma cell lines).
This is one part of the list. Repeats are few or missing, and single values can be far off.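 Cells were imaged in 1,536-well plates, and nuclei stained with an antibody against cleaved PARP were counted against all DNA-stained nuclei to give the apoptosis fraction. Screening doses were chosen to leave most cells alive, and resting and induced cleaved-PARP levels differ strongly between cell lines.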

Key:
Test in all cases: cleaved PARP positive nuclei fraction relative to DMSO control; melanoma cells; higher = more apoptosis
Details in all cases: library dose: low library concentration; 72 h
501Mel = test system: 501Mel
A101D = test system: A101D
A2058 = test system: A2058
C32 = test system: C32
CBRC008 = test system: CBRC008 (line from a melanoma biopsy)
CBRC014 = test system: CBRC014 (line from a melanoma biopsy)
CBRC016 = test system: CBRC016 (line from a melanoma biopsy)
CBRC017 = test system: CBRC017 (line from a melanoma biopsy)

Structure (SMILES)	cleaved PARP positive nuclei fraction (501Mel) [%]	cleaved PARP positive nuclei fraction (A101D) [%]	cleaved PARP positive nuclei fraction (A2058) [%]	cleaved PARP positive nuclei fraction (C32) [%]	cleaved PARP positive nuclei fraction (CBRC008) [%]	cleaved PARP positive nuclei fraction (CBRC014) [%]	cleaved PARP positive nuclei fraction (CBRC016) [%]	cleaved PARP positive nuclei fraction (CBRC017) [%]
Cn1cc(C2=C(c3cn(C4CCN(Cc5ccccn5)CC4)c4ccccc34)C(=O)NC2=O)c2ccccc21 [Enzastaurin] + N#Cc1c(O)c2c(-c3ccc(-c4ccccc4O)cc3)csc2[nH]c1=O [A769662] (first compound 0.8 µM, partner dose 2 µM)	158	15.9	232	66.1	187	117	120	115
CCCCCCCCc1ccc(CCC(N)(CO)CO)cc1 [fingolimod] + C/C(O)=C(\C#N)C(=O)Nc1cc(Br)ccc1Br [LFM-A13] (first compound 2 µM, partner dose 2 µM)	72.2	49.5	346	81.3	72.6	90.7	71.3	186
CCN(CC)CCNC(=O)c1c(C)[nH]c(/C=C2\C(=O)Nc3ccc(F)cc32)c1C [sunitinib] + C/C(O)=C(\C#N)C(=O)Nc1cc(Br)ccc1Br [LFM-A13] (first compound 0.4 µM, partner dose 2 µM)	245	44.4	117	80.5	142	282	88.6	101
C[C@]12O[C@H](C[C@]1(O)CO)n1c3ccccc3c3c4c(c5c6ccccc6n2c5c31)CNC4=O [Lestaurtinib] + O=C1NC(=O)/C(=C/c2ccc(-c3ccc(F)cc3O)o2)S1 [AS252424] (first compound 0.004 µM, partner dose 1 µM)	160	21.8	107	96.3	104	88.8	129	95.7
CCN(CC)CCNC(=O)c1c(C)[nH]c(/C=C2\C(=O)Nc3ccc(F)cc32)c1C [sunitinib] + O=C(Oc1ccc([N+](=O)[O-])cc1)N1CCC(C(O)(c2ccc3c(c2)OCO3)c2ccc3c(c2)OCO3)CC1 [JZL184] (first compound 0.4 µM, partner dose 1 µM)	78.2	73.1	45.2	39.8	160	89.5	67.6	102
Cc1cn(-c2cc(NC(=O)c3ccc(C)c(Nc4nccc(-c5cccnc5)n4)c3)cc(C(F)(F)F)c2)cn1 [nilotinib] + Cc1cc(SCc2sc(-c3ccc(C(F)(F)F)c(F)c3)nc2C)ccc1OCC(=O)O [GW0742] (first compound 0.2 µM, partner dose 2 µM)	74.7	31.9	138	45.9	203	97.9	58.6	77.5
O=C(/C=C/c1cccnc1)NCCCCC1CCN(C(=O)c2ccccc2)CC1 + O=C(Oc1ccc([N+](=O)[O-])cc1)N1CCC(C(O)(c2ccc3c(c2)OCO3)c2ccc3c(c2)OCO3)CC1 [JZL184] (first compound 0.01 µM, partner dose 1 µM)	101	31.7	119	66.4	3420	94.1	735	357
O=C(O)c1ccc2c(c1)nc(Nc1cccc(Cl)c1)c1ccncc12 + O=C(Oc1ccc([N+](=O)[O-])cc1)N1CCC(C(O)(c2ccc3c(c2)OCO3)c2ccc3c(c2)OCO3)CC1 [JZL184] (first compound 0.4 µM, partner dose 1 µM)	101	24.8	125	31.9	96.3	117	130	124
N.N.[Cl][Pt][Cl] [cisplatin] + O=C(O)C(=O)Nc1sc2c(c1C(=O)O)CCNC2 [TCS401] (first compound 1.6 µM, partner dose 1.66667 µM)	30.8	30.2	81.3	83.6	159	110	89.3	110
C[C@]12O[C@H](C[C@]1(O)CO)n1c3ccccc3c3c4c(c5c6ccccc6n2c5c31)CNC4=O [Lestaurtinib] + CCc1ccc(CCOc2ccc(CC3SC(=O)NC3=O)cc2)nc1 [pioglitazone] (first compound 0.004 µM, partner dose 2 µM)	95.2	10.4	97	186	48.1	82.6	77.6	97.7
CS(=O)(=O)c1ccc(C(=O)Nc2ccc(Cl)c(-c3ccccn3)c2)c(Cl)c1 [vismodegib] + C/C(O)=C(\C#N)C(=O)Nc1cc(Br)ccc1Br [LFM-A13] (first compound 1 µM, partner dose 2 µM)	154	18.8	25.3	104	159	48.4	45.2	88.5
CN1CCN(c2ccc3nc(-c4c(N)c5c(F)cccc5[nH]c4=O)[nH]c3c2)CC1 [Dovitinib] + O=C(Oc1ccc([N+](=O)[O-])cc1)N1CCC(C(O)(c2ccc3c(c2)OCO3)c2ccc3c(c2)OCO3)CC1 [JZL184] (first compound 0.1 µM, partner dose 1 µM)	99.4	46.2	89.4	168	151	97.7	51.9	97.5
CCCCCCCCCCCCCCCCCCOP(=O)([O-])OC1CC[N+](C)(C)CC1 [Perifosine] + C/C(O)=C(\C#N)C(=O)Nc1cc(Br)ccc1Br [LFM-A13] (first compound 0.4 µM, partner dose 2 µM)	134	29.2	232	87.3	80.5	108	105	156
NC(=O)c1ccc(N(C(N)=O)c2c(F)cccc2F)nc1-c1ccc(F)cc1F + Cc1cc(SCc2sc(-c3ccc(C(F)(F)F)c(F)c3)nc2C)ccc1OCC(=O)O [GW0742] (first compound 0.4 µM, partner dose 2 µM)	83.5	56.1	241	110	123	97.4	97.8	79.3
Cc1ccc(Nc2nccc(N(C)c3ccc4c(C)n(C)nc4c3)n2)cc1S(N)(=O)=O [Pazopanib] + Cc1cc(SCc2sc(-c3ccc(C(F)(F)F)c(F)c3)nc2C)ccc1OCC(=O)O [GW0742] (first compound 0.4 µM, partner dose 2 µM)	66.6	69.2	144	84.9	115	125	22.9	119
N.N.[Cl][Pt][Cl] [cisplatin] + COc1ccc(COc2ccc(Cc3cnc(N)nc3N)cc2OC)cc1 [GW2580] (first compound 1.6 µM, partner dose 1 µM)	185	23.8	160	72.1	267	86.3	56.9	137
Cc1cn(-c2cc(NC(=O)c3ccc(C)c(Nc4nccc(-c5cccnc5)n4)c3)cc(C(F)(F)F)c2)cn1 [nilotinib] + C/C(O)=C(\C#N)C(=O)Nc1cc(Br)ccc1Br [LFM-A13] (first compound 0.2 µM, partner dose 2 µM)	75.5	54.3	101	110	156	106	124	78.8
C[C@]1(O)C[C@@H](c2nc(-c3ccc4ccc(-c5ccccc5)nc4c3)c3c(N)nccn32)C1 + O=C(Oc1ccc([N+](=O)[O-])cc1)N1CCC(C(O)(c2ccc3c(c2)OCO3)c2ccc3c(c2)OCO3)CC1 [JZL184] (first compound 0.4 µM, partner dose 1 µM)	276	22.5	137	77.9	113	103	82.9	95.6
C[C@]12O[C@H](C[C@]1(O)CO)n1c3ccccc3c3c4c(c5c6ccccc6n2c5c31)CNC4=O [Lestaurtinib] + COc1ccc(COc2ccc(Cc3cnc(N)nc3N)cc2OC)cc1 [GW2580] (first compound 0.004 µM, partner dose 1 µM)	63.7	28	91.4	30.4	27.5	83.4	36.4	171
N.N.[Cl][Pt][Cl] [cisplatin] + COc1cc(N2CCC(N3CCN(C)CC3)CC2)ccc1Nc1ncc(Cl)c(Nc2ccccc2S(=O)(=O)C(C)C)n1 [NVP-TAE684] (first compound 1.6 µM, partner dose 0.08 µM)	76	53.5	158	41.3	152	112	39.8	78.1
C[C@]12O[C@H](C[C@]1(O)CO)n1c3ccccc3c3c4c(c5c6ccccc6n2c5c31)CNC4=O [Lestaurtinib] + c1cc(-c2cnn3cc(-c4ccc(OCCN5CCCCC5)cc4)cnc23)ccn1 [Dorsomorphin] (first compound 0.004 µM, partner dose 0.4 µM)	43.3	22.3	62	63.5	112	97.4	37.7	95.4
CC(=O)O[C@@]12CO[C@@H]1C[C@H](O)[C@@]1(C)C(=O)[C@H](O)C3=C(C)[C@@H](OC(=O)[C@H](O)[C@@H](NC(=O)OC(C)(C)C)c4ccccc4)C[C@@](O)([C@@H](OC(=O)c4ccccc4)[C@H]21)C3(C)C [Docetaxel] + C/C(O)=C(\C#N)C(=O)Nc1cc(Br)ccc1Br [LFM-A13] (first compound 0.0001 µM, partner dose 2 µM)	82.9	32.1	2590	114	210	176	197	171

Retrieved one by one from the entries so far:
Structure (SMILES)	cleaved PARP positive nuclei fraction (501Mel) [%]	cleaved PARP positive nuclei fraction (A101D) [%]	cleaved PARP positive nuclei fraction (A2058) [%]	cleaved PARP positive nuclei fraction (C32) [%]	cleaved PARP positive nuclei fraction (CBRC008) [%]	cleaved PARP positive nuclei fraction (CBRC014) [%]	cleaved PARP positive nuclei fraction (CBRC016) [%]	cleaved PARP positive nuclei fraction (CBRC017) [%]
Cc1cn(-c2cc(NC(=O)c3ccc(C)c(Nc4nccc(-c5cccnc5)n4)c3)cc(C(F)(F)F)c2)cn1 [nilotinib] + C/C(O)=C(\C#N)C(=O)Nc1cc(Br)ccc1Br [LFM-A13] (first compound 0.2 µM, partner dose 2 µM)	75.5	54.3	101	110	156	106	124	78.8
CCCCCCCCc1ccc(CCC(N)(CO)CO)cc1 [fingolimod] + C/C(O)=C(\C#N)C(=O)Nc1cc(Br)ccc1Br [LFM-A13] (first compound 2 µM, partner dose 2 µM)	72.2	49.5	346	81.3	72.6	90.7	71.3	186
